Reference: the supplement of paper PMC6078165
Values are relative to the signal before dosing, not to a vehicle control; the signal also falls without drug.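 Fibroblast labels name human fibroblasts: mostly primary ones from tissues such as uterus (C12385, HUF), lung (H6013), bone (Hs27A), adrenal (HADF) and skin (WS1), plus mammary HMF and breast cancer-associated Hs343T. The cancer cells are basal-like or mesenchymal-like triple-negative breast cancer lines. The paper calls a changed response a hit when it shifts by more than 3x the replicate standard deviation. The tissue of the other fibroblasts is not given here.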

System: HCC1143
Experiment: relative JC-1 red fluorescence (viability) vs pre-drug, coculture with fibroblast (fraction); higher = more viable cancer cells
Method: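 JC-1 labelled TNBC cells cocultured 1:1 (1,500 cells each) with CellTrace Violet stained primary or stromal fibroblasts in 384-well plates in FluoroBrite medium, treated with one of 42 anticancer drugs at 0.1, 1, 10 or 100 uM. JC-1 red fluorescence (mitochondrial integrity in cancer cells only) was read by plate reader every 8 h for 72 h. Values are normalised to each well's pre-drug value. The stock of one drug was tenfold lower, so its dose labels may be too high.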

COc1cc([C@@H]2c3cc4c(cc3[C@@H](O[C@@H]3O[C@@H]5CO[C@@H](C)O[C@H]5[C@H](O)[C@H]3O)[C@H]3COC(=O)[C@H]23)OCO4)cc(OC)c1O [Etoposide]
relative JC-1 red fluorescence
Details	8 h	16 h	24 h	32 h	40 h	48 h	56 h	64 h	72 h
0.1 µM, coculture fibroblast: C12385	0.817	0.74	0.671	0.598	0.539	0.508	0.48	0.446	0.437
0.1 µM, coculture fibroblast: H6013	0.723	0.627	0.591	0.5651	0.50455	0.5048	0.474	0.4586	0.423
0.1 µM, coculture fibroblast: H6019	0.827	0.772	0.726	0.675	0.636	0.602	0.5507	0.50343	0.468
0.1 µM, coculture fibroblast: H6076	0.771	0.801	0.7412	0.6656	0.634	0.606	0.57	0.543	0.542
0.1 µM, coculture fibroblast: H6231	0.82	0.798	0.741	0.6408	0.639	0.606	0.564	0.53	0.51
0.1 µM, coculture fibroblast: HADF	0.727	0.674	0.649	0.65	0.578	0.573	0.539	0.518	0.484
0.1 µM, coculture fibroblast: HCFa	0.7084	0.633	0.589	0.556	0.47	0.453	0.4091	0.381	0.357
0.1 µM, coculture fibroblast: HCPF	0.788	0.767	0.7152	0.653	0.6101	0.59	0.561	0.529	0.5242
0.1 µM, coculture fibroblast: HHSteC	0.802	0.749	0.719	0.687	0.613	0.583	0.537	0.511	0.474
0.1 µM, coculture fibroblast: HMF	0.79	0.872	0.789	0.657	0.676	0.641	0.585	0.551	0.518
0.1 µM, coculture fibroblast: HPFa	0.9079	0.814	0.765	0.664	0.619	0.573	0.515	0.469	0.432
0.1 µM, coculture fibroblast: HUF	0.863	0.789	0.745	0.68	0.628	0.608	0.568	0.543	0.513
0.1 µM, coculture fibroblast: Hs5	0.844	0.876	0.817	0.76886	0.715	0.67	0.6414	0.612	0.61
0.1 µM, coculture fibroblast: Hs27A	0.699	0.638	0.62	0.634	0.525	0.528	0.484	0.457	0.413
0.1 µM, coculture fibroblast: Hs343T	0.804	0.851	0.778	0.663	0.6455	0.601	0.55204	0.5269	0.495
0.1 µM, coculture fibroblast: WS1	0.804	0.726	0.675	0.598	0.548	0.507	0.468	0.448	0.431
1 µM, coculture fibroblast: C12385	0.8343	0.746	0.6852	0.619	0.552	0.505	0.4714	0.437	0.423
1 µM, coculture fibroblast: H6013	0.717	0.648	0.607	0.588	0.518	0.508	0.472	0.461	0.4254
1 µM, coculture fibroblast: H6019	0.814	0.756	0.708	0.642	0.601	0.57	0.518	0.466	0.44
1 µM, coculture fibroblast: H6076	0.78	0.775	0.735	0.669	0.63	0.601	0.568	0.538	0.528
1 µM, coculture fibroblast: H6231	0.79	0.768	0.6996	0.604	0.601	0.563	0.524	0.486	0.458
1 µM, coculture fibroblast: HADF	0.7402	0.691	0.663	0.656	0.5761	0.562	0.526	0.501	0.456
1 µM, coculture fibroblast: HCFa	0.73845	0.666	0.624	0.596	0.515	0.489	0.449	0.422	0.384
1 µM, coculture fibroblast: HCPF	0.7884	0.8	0.747	0.623	0.655	0.616	0.573	0.538	0.513
1 µM, coculture fibroblast: HHSteC	0.833	0.767	0.737	0.705	0.634	0.618	0.573	0.539	0.484
1 µM, coculture fibroblast: HMF	0.786	0.773	0.721	0.68	0.635	0.616	0.577	0.553	0.542
1 µM, coculture fibroblast: HPFa	0.912	0.826	0.799	0.705	0.636	0.599	0.53	0.476	0.442
1 µM, coculture fibroblast: HUF	0.8427	0.742	0.677	0.5929	0.5366	0.5007	0.445	0.404	0.375
1 µM, coculture fibroblast: Hs5	0.863	0.876	0.853	0.804	0.766	0.7358	0.7067	0.688	0.672
1 µM, coculture fibroblast: Hs27A	0.714	0.63	0.602	0.616	0.5185	0.53	0.491	0.472	0.405
1 µM, coculture fibroblast: Hs343T	0.788	0.802	0.749	0.664	0.65	0.608	0.543	0.514	0.477
1 µM, coculture fibroblast: WS1	0.842	0.7673	0.729	0.663	0.611	0.579	0.544	0.514	0.486
